# Source: PubChem BioAssay AID1671190 (National Center for Advancing Translational Sciences (NCATS), 2021)
# The chains behind the UniProt entries cited, without tags or fusion partners. Where a name states a change or a piece, a line headed by the entry shows the natural chain unless it says otherwise.
# UniProt P18054: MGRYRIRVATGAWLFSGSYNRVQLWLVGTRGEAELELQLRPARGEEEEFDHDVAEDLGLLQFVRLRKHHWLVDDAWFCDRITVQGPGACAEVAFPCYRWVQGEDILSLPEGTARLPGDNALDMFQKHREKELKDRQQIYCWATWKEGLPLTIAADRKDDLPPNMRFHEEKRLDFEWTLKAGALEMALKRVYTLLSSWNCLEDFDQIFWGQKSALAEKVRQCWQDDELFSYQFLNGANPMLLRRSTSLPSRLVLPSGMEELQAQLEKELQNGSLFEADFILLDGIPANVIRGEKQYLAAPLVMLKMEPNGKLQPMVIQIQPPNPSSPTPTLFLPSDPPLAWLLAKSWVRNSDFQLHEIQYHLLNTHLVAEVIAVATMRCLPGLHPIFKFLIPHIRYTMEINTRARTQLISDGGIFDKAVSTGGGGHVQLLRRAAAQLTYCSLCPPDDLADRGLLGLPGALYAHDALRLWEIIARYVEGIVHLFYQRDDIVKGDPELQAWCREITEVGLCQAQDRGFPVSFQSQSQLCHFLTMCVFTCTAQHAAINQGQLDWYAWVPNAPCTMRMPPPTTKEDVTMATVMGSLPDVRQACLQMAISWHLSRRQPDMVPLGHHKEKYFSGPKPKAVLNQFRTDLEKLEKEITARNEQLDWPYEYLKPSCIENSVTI
# Several values for one entry are separate records, joined by “and”; a condition that tells them apart may be missing. Identical values can stand only once. The whole screen tested about 580,000 compounds, of which about 6,100 (1.1%) were called active. The shares of active, inactive and inconclusive entries below differ from those in the screen. Calls come from the whole dose curve; as a rule, active = well fitted inhibition curve with a large enough effect; inconclusive = small, poorly fitted or top-dose-only effect, or another doubt; inactive = no such curve, though single readings can be large or run the other way. Potencies of inconclusive entries are doubtful fits and often do not repeat.
# Target: Polyunsaturated fatty acid lipoxygenase ALOX12 (Homo sapiens) (UniProt P18054)
# Experiment: Primary qHTS assay for inhibitors of human arachidonate 12S-lipoxygenase (ALOX12): Round 2
# Conditions: purified 12hLO, xylenol orange hydroperoxide absorbance; series mostly up to 108 µM
# How it was run: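 Purified human 12hLO (150 nM final) in 25 mM Hepes, 0.01% Triton X-100, pH 7.0 was preincubated 15 min at room temperature with compound. Then 40 uM arachidonic acid was added, 30 min. Hydroperoxide was read by Fe-XO absorbance ratio 573/405 nm.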
# Potency is the fitted concentration of half-maximal effect.
row,SMILES,Potency
1,O=C(NC1CC1)c1cccc(NC(=O)c2cc(=O)c3ccccc3o2)c1,"inconclusive: 7.08 µM [inhibitor, partial curve, poor fit]"
2,Cc1ccc(C)c(-n2cccc2C=O)c1,"inconclusive: 50.1 µM [inhibitor, partial curve, poor fit]"
3,CS(=O)(=O)Oc1ccc2c(c1)O/C(=C\c1ccc3c(c1)OCO3)C2=O,"inconclusive: 20 µM [inhibitor, full curve, poor fit]"
4,CC(=O)N(CC(=O)O)c1ccccc1C(=O)O,"inconclusive: 2 µM [inhibitor, full curve, poor fit]"
5,Cc1cccc(NC(=O)CC(C)c2ccccc2)c1 (stereo not given),"inconclusive: 126 µM [inhibitor, partial curve, poor fit]"
6,O=C(c1ccc2c(c1)OCO2)N1CCCC1c1nnc2n1CCNC2 (stereo not given),"inconclusive: 10 µM [inhibitor, full curve]"
7,CCOc1ccc(S(=O)(=O)NCc2ccc3c(c2)OCO3)cc1C,inactive
8,O=C(Nc1cc(Br)ccc1I)C1CC2CCC1C2 (stereo not given),"inconclusive: 56.2 µM [inhibitor, partial curve, poor fit]"
9,CC(=O)c1ccc(/C=C/C(=O)O)o1,"inconclusive: 25.1 µM [inhibitor, partial curve, poor fit]"
10,C=CCNC(=S)Nc1nc2c(cc1C(=O)OCC)COC(C)(C)C2,"inconclusive: 35.5 µM [inhibitor, single point]"
11,Cc1cc(C(=O)CSc2nncs2)c(C)n1Cc1ccco1,inactive
12,Cc1ccc(C)c(CN2C(=O)c3ccccc3S(=O)(=O)c3ccc(C(=O)NCCCN4CCCC(C)C4)cc32)c1 (stereo not given),"inconclusive: 63.1 µM [inhibitor, partial curve, poor fit]"
13,CCCOc1ccc(-c2nc(C#N)c(N3CCN(CC)CC3)o2)cc1,"inconclusive: 35.5 µM [inhibitor, partial curve, poor fit]"
14,CCN(CC)S(=O)(=O)c1ccc(NS(=O)(=O)c2ccc(C)cc2)cc1,"inconclusive: 79.4 µM [inhibitor, partial curve, poor fit]"
15,CNC(=S)N/N=C(\C)c1ccc(Cl)s1,"inconclusive: 50.1 µM [inhibitor, partial curve, poor fit]"
16,Cc1cc(Br)ccc1NC(=O)CCn1cnc2c1c(=O)n(C)c(=O)n2C,inactive
17,NC(=O)CN1C(=O)[C@@H]2CN(C(=O)c3ccccc3)CCN2C1=O,inactive
18,CCC(C)NS(=O)(=O)c1cc2c3c(c1)CCC(=O)N3CCC2 (stereo not given),"inconclusive: 28.2 µM [inhibitor, partial curve, poor fit]"
19,O=c1[nH]c2ccccc2nc1-c1cccs1,inactive
20,O=CNc1cccc(O)c1,"inconclusive: 126 µM [inhibitor, single point]"
21,C=CCNC(=O)NC(=O)CN(CC)c1cc(C)ccc1C,"inconclusive: 89.1 µM [inhibitor, single point]"
22,COc1ccc(-c2cnc([C@@H]3COCCN3Cc3ccc(NC(C)=O)cc3)[nH]2)cc1,"inconclusive: 70.8 µM [inhibitor, partial curve, poor fit]"
23,CCOC1=C2CN(S(=O)(=O)c3ccc(C)cc3)[C@H](c3cccc(Cl)c3)C[C@@H]2N(S(=O)(=O)c2ccccc2[N+](=O)[O-])[C@H](c2ccccc2)C1,"inconclusive: 89.1 µM [inhibitor, single point]"
24,CN1CCN(CCCN2C(=O)CSC2c2ccc(Cl)cc2)CC1 (stereo not given),"inconclusive: 7.08 µM [inhibitor, full curve]"

row,SMILES,Potency
1,CC[C@]12c3[nH]c4ccc(OC)cc4c3CCN1C(=O)C(CC(=O)NCC13CC4CC(CC(C4)C1)C3)C[C@@H]2C(=O)N1CCN(C(=O)C2CC2)CC1 (stereo not given in full),inactive
2,O=S(=O)(O)c1ccc(-c2ncc[nH]2)cc1,"inconclusive: 5.19 µM [inhibitor, single point]"
3,CCOCC(=O)N1CCC(Cc2ccc(C(=O)N(C)C)cc2)CC1,inactive
4,CCCN1C(=O)NC(c2cccc(Cl)c2Cl)C(C(=O)Nc2cc(C)on2)=C1C (stereo not given),inactive
5,CCOC(=O)N1CCN(CC(=O)Nc2oc3ccc(Cl)cc3c(=O)c2-c2ccc(C)cc2)CC1,inactive
6,Oc1ccc(C2(c3ccccc3)C=Cc3c(ccc4ccccc34)O2)cc1 (stereo not given),"inconclusive: 56.2 µM [inhibitor, partial curve, poor fit]"
7,O=C(COc1ccccc1Cl)N1CCC(c2ccccc2)=N1,"inconclusive: 141 µM [inhibitor, single point]"
8,Nc1ccc(O)cc1C(=O)OCC(=O)C12CC3CC(CC(C3)C1)C2,"inconclusive: 0.891 µM [inhibitor, full curve, poor fit]"
9,COc1cccc(-c2nc(CCNC(=O)COc3ccc(Cl)cc3)cs2)c1,"inconclusive: 50.1 µM [inhibitor, single point]"
10,CC(=O)c1cccc(NC(=O)/C(=C\c2ccco2)NC(=O)c2ccco2)c1,"inconclusive: 39.8 µM [inhibitor, partial curve, poor fit]"
11,COc1ccccc1NC(=O)C1=C(C)Nc2nc(SCc3ccccc3Cl)nn2C1c1ccccn1 (stereo not given),inactive
12,CN(C)Cc1ccccc1CN(C)c1nc(-c2cccnc2)nc2c1CNC2,inactive
13,O=c1c2ccccc2cnn1CN1CCN(S(=O)(=O)c2ccc(Cl)c(Cl)c2)CC1,inactive
14,Cn1c(C(=O)N2CCOCC2)cc2c(=O)n3ccccc3nc21,inactive
15,CCOc1cc(/C=C/C(=O)c2ccc(C3CCCCC3)cc2)ccc1OC,inactive
16,COc1ccc(-c2csc(NC(=O)CSc3nc(C)nc4sc(C(=O)O)c(C)c34)n2)cc1,"inconclusive: 44.7 µM [inhibitor, partial curve, poor fit]"
17,O=C1NCCCCCCN[C@H]2C[C@H](c3nc(-c4cccnc4)no3)C[C@@H]12,"inconclusive: 5.62 µM [inhibitor, full curve]"
18,CCCCOc1ccc(N=Nc2ccc(N)nc2N)cn1,"inconclusive: 112 µM [inhibitor, single point]"
19,Cc1ccc(Cc2c(-c3cccc(Br)c3)nc3ccc(Br)cn23)cc1,active: 25.1 µM
20,COc1cc(/C=C(/C#N)c2ccccn2)ccc1OC(F)F,"inconclusive: 28.2 µM [inhibitor, partial curve, poor fit]"
21,Cc1noc(C)c1-c1cc2cc(C(C)C)oc2c(NCCc2ccccn2)n1,"inconclusive: 56.2 µM [inhibitor, partial curve, poor fit]"
22,CCN1c2cc(C(=O)Nc3ccc(C)c(C)c3)ccc2C(=O)N2CCCCC21 (stereo not given),inactive
23,O=C(/C=C/c1cccs1)c1cc(Cl)ccc1O,inactive
24,CCCCNC(=O)NC(=O)CSc1nc(-c2ccco2)nc2ccccc12,"inconclusive: 14.1 µM [inhibitor, partial curve, poor fit]"

row,SMILES,Potency
1,CC(C)c1ccc(NC(=O)C(C)N(c2ccccc2)S(C)(=O)=O)cc1 (stereo not given),"inconclusive: 112 µM [inhibitor, partial curve, poor fit]"
2,Cc1ccc(NC(=O)CN2CCCC2)cc1,inactive
3,COc1cc2c(cc1O)C(Cc1ccc(O)cc1)NCC2 (stereo not given),inactive
4,Cc1ccccc1N(C)C1CN(Cc2ccc(C#N)cc2)C1,inactive
5,O=C(CSc1nc2nc(-c3cccs3)cc(C(F)(F)F)c2c(=O)[nH]1)C(F)(F)F,inactive
6,Cc1ccc(C(c2cccc(Br)c2)c2c(C)[nH]c3ccccc23)s1 (stereo not given),"inconclusive: 50.1 µM [inhibitor, partial curve, poor fit]"
7,CN1CCN(C(=O)c2cnc(N3CCCC3)c3ccccc23)CC1,inactive
8,CCCN(CC1CCOC1)C(=O)NC(C)C (stereo not given),inactive
9,CCOc1ccccc1C(=O)N1CCc2[nH]nc(C(=O)NCCCc3ccccc3)c2C1,inactive
10,Cc1cc2nc(C)c(Cc3ccccc3)c(=O)n2[nH]1,"inconclusive: 3.98 µM [inhibitor, full curve, poor fit]"
11,C/C(CC(C)(C)c1ccccc1)=N\N=C(N)N,inactive
12,COc1cccc(-c2ccc(C3=CC(=O)CC(C)(C)C3=O)cc2)c1OC,"inconclusive: 3.16 µM [inhibitor, full curve, poor fit]"
13,COc1cccc(-c2nc(N3CCC(C)CC3)c3ccccc3n2)c1O,"inconclusive: 70.8 µM [inhibitor, partial curve, poor fit]"
14,COCCCNc1nc(NCc2cccc(Cl)c2)c2cnn(C)c2n1,"inconclusive: 50.1 µM [inhibitor, partial curve, poor fit]"
15,c1ccc(Nc2nc3ccccc3o2)cc1,inactive
16,COc1cc(OC)c(NC(=O)N2CC3CCCN3c3ccccc32)cc1Cl (stereo not given),"inconclusive: 112 µM [inhibitor, single point] and inconclusive: 141 µM [inhibitor, partial curve, poor fit]"
17,CC(C)(C)C(=O)NC(=S)Nc1cccc(C(=O)O)c1,"inconclusive: 50.1 µM [inhibitor, partial curve, poor fit]"
18,C=CCn1c(N)c(C(=O)NC2CCCCC2)sc1=S,inactive
19,CS(=O)(=O)N1CCC(C2CCN(C(=O)c3ccc(Cl)s3)C2)CC1 (stereo not given),inactive
20,COc1ccc(-c2nc3cc(C)c(Br)c(C)n3c2Cc2ccc(C)cc2)cc1OC,"inconclusive: 126 µM [inhibitor, partial curve, poor fit]"
21,CC1C2CC(C/C2=N\NC(N)=S)C1(C)C (stereo not given),"inconclusive: 44.7 µM [inhibitor, partial curve, poor fit]"
22,O=C(c1cccc(Cl)c1)N1CCC2(CC1)N=C(c1cccc(Br)c1)NO2,"inconclusive: 17.8 µM [inhibitor, full curve]"
